# According to the supplement of paper PMC4604168 (melanoma cell lines):
# This is one part of the list. Many values rest on one well or one pass, so single values are uncertain.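 Imaging used 1,536-well plates; nuclei positive for cleaved PARP by antibody were divided by total DNA-stained nuclei to yield the apoptosis fraction. Doses for screening kept most cells viable, and cell lines differ markedly in resting and induced cleaved-PARP levels.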
# Tested on: MZ2-MEL
# Test: cleaved PARP positive nuclei fraction relative to DMSO control; melanoma cells; higher = more apoptosis
# Settings: library dose: low library concentration; 72 h
row,Compound,cleaved PARP positive nuclei fraction
1,"CC1(C)CCC(c2ccc(Cl)cc2)=C(CN2CCN(c3ccc(C(=O)NS(=O)(=O)c4ccc(N[C@H](CCN5CCOCC5)CSc5ccccc5)c(S(=O)(=O)C(F)(F)F)c4)cc3)CC2)C1 + CCN(CC)CCCCNc1ncc2cc(-c3cc(OC)cc(OC)c3)c(NC(=O)NC(C)(C)C)nc2n1 [PD173074] (first compound 0.4 µM, partner dose 0.1 µM)",40.5%
2,"C[C@]1(O)C[C@@H](c2nc(-c3ccc4ccc(-c5ccccc5)nc4c3)c3c(N)nccn32)C1 + COc1cc2ncnc(Nc3ccc(Oc4ccccc4)cc3)c2cc1OC [SrcI1] (first compound 0.4 µM, partner dose 2 µM)",183%
3,"CC1(C)CCC(c2ccc(Cl)cc2)=C(CN2CCN(c3ccc(C(=O)NS(=O)(=O)c4ccc(N[C@H](CCN5CCOCC5)CSc5ccccc5)c(S(=O)(=O)C(F)(F)F)c4)cc3)CC2)C1 + CCc1ccc(CCOc2ccc(CC3SC(=O)NC3=O)cc2)nc1 [pioglitazone] (first compound 0.4 µM, partner dose 2 µM)",247%
4,"C[C@@H](N)c1ccc(C(=O)Nc2ccnc3[nH]ccc23)cc1 + CCN(CC)CCCCNc1ncc2cc(-c3cc(OC)cc(OC)c3)c(NC(=O)NC(C)(C)C)nc2n1 [PD173074] (first compound 0.4 µM, partner dose 0.1 µM)",287%
5,"CCN(CC)CCNC(=O)c1c(C)[nH]c(/C=C2\C(=O)Nc3ccc(F)cc32)c1C [sunitinib] + Cc1cc(N2CCOCC2)cc2[nH]c(-c3c(NC[C@@H](O)c4cccc(Cl)c4)cc[nH]c3=O)nc12 [BMS536924] (first compound 0.4 µM, partner dose 0.2 µM)",190%
6,"NC(=O)c1ccc(N(C(N)=O)c2c(F)cccc2F)nc1-c1ccc(F)cc1F + O=C(Nc1cccc(Cl)c1)Nc1ncc(CCNc2ncnc3ccsc23)s1 [SNS314] (first compound 0.4 µM, partner dose 0.0008 µM)",95%
7,"Cn1cnc2c(F)c(Nc3ccc(Br)cc3Cl)c(C(=O)NOCCO)cc21 [selumetinib] + Cc1ccc(NC(=O)c2cccc(N(C)C)c2)cc1NC(=O)c1ccc(O)cc1 [ZM336372] (first compound 0.015 µM, partner dose 2 µM)",193%
8,"CS(=O)(=O)c1ccc(C(=O)Nc2ccc(Cl)c(-c3ccccn3)c2)c(Cl)c1 [vismodegib] + NC(=O)Nc1cc(-c2cccc(F)c2)sc1C(=O)N[C@H]1CCCNC1 [AZD7762] (first compound 1 µM, partner dose 0.02 µM)",68%
9,"Cn1cnc2c(F)c(Nc3ccc(Br)cc3Cl)c(C(=O)NOCCO)cc21 [selumetinib] + Cc1cc(N2CCOCC2)cc2[nH]c(-c3c(NC[C@@H](O)c4cccc(Cl)c4)cc[nH]c3=O)nc12 [BMS536924] (first compound 0.015 µM, partner dose 0.2 µM)",470%
10,"Cn1cnc2c(F)c(Nc3ccc(Br)cc3Cl)c(C(=O)NOCCO)cc21 [selumetinib] + Oc1nc(-c2ccc(C(F)(F)F)cc2)nc2c1CSCC2 [XAV939] (first compound 0.015 µM, partner dose 2 µM)",264%
11,"COc1ccc(C2=N[C@@H](c3ccc(Cl)cc3)[C@@H](c3ccc(Cl)cc3)N2C(=O)N2CCNC(=O)C2)c(OC(C)C)c1 [Nutlin-3] + Oc1nc(-c2ccc(C(F)(F)F)cc2)nc2c1CSCC2 [XAV939] (first compound 0.1 µM, partner dose 2 µM)",174%
12,"NC(=O)c1ccc(N(C(N)=O)c2c(F)cccc2F)nc1-c1ccc(F)cc1F + COc1cc2c(Oc3ccc4[nH]c(C)cc4c3F)ncnc2cc1OCCCN1CCCC1 [cediranib] (first compound 0.4 µM, partner dose 0.4 µM)",76%
13,"Cn1cnc2c(F)c(Nc3ccc(Br)cc3Cl)c(C(=O)NOCCO)cc21 [selumetinib] + CCN(CC)CCCCNc1ncc2cc(-c3cc(OC)cc(OC)c3)c(NC(=O)NC(C)(C)C)nc2n1 [PD173074] (first compound 0.015 µM, partner dose 0.1 µM)",185%
14,"CN(c1ncccc1CNc1nc(Nc2ccc3c(c2)CC(=O)N3)ncc1C(F)(F)F)S(C)(=O)=O + Oc1nc(-c2ccc(C(F)(F)F)cc2)nc2c1CSCC2 [XAV939] (first compound 0.08 µM, partner dose 2 µM)",47.7%
15,"Cn1cnc2c(F)c(Nc3ccc(Br)cc3Cl)c(C(=O)NOCCO)cc21 [selumetinib] + COc1ccc(COc2ccc(Cc3cnc(N)nc3N)cc2OC)cc1 [GW2580] (first compound 0.015 µM, partner dose 1 µM)",228%
16,"NC(=O)c1ccc(N(C(N)=O)c2c(F)cccc2F)nc1-c1ccc(F)cc1F + O=C(O)c1ccc(-c2c[nH]c3ncc(-c4ccccc4)cc23)cc1C1CCCC1 [GSK650394] (first compound 0.4 µM, partner dose 0.16 µM)",493%
17,"COc1ccc(C2=N[C@@H](c3ccc(Cl)cc3)[C@@H](c3ccc(Cl)cc3)N2C(=O)N2CCNC(=O)C2)c(OC(C)C)c1 [Nutlin-3] + NC(=O)Nc1cc(-c2cccc(F)c2)sc1C(=O)N[C@H]1CCCNC1 [AZD7762] (first compound 0.1 µM, partner dose 0.02 µM)",117%
18,"CS(=O)(=O)c1ccc(C(=O)Nc2ccc(Cl)c(-c3ccccn3)c2)c(Cl)c1 [vismodegib] + Cc1ccc(NC(=O)c2cccc(N(C)C)c2)cc1NC(=O)c1ccc(O)cc1 [ZM336372] (first compound 1 µM, partner dose 2 µM)",314%
19,"CCCCCCCCc1ccc(CCC(N)(CO)CO)cc1 [fingolimod] + Cn1cc(/C=C2\C(=O)Nc3cccnc32)c2ccccc21 [GW441756] (first compound 2 µM, partner dose 0.4 µM)",113%
20,"NC1(c2ccc(-c3nc4ccn5c(=O)[nH]nc5c4cc3-c3ccccc3)cc2)CCC1 + C=CCn1c(=O)c2cnc(Nc3ccc(N4CCN(C)CC4)cc3)nc2n1-c1cccc(C(C)(C)O)n1 [MK1775] (first compound 0.4 µM, partner dose 0.02 µM)",126%
21,"C[C@]1(O)C[C@@H](c2nc(-c3ccc4ccc(-c5ccccc5)nc4c3)c3c(N)nccn32)C1 + O=C(Nc1cccc(Cl)c1)Nc1ncc(CCNc2ncnc3ccsc23)s1 [SNS314] (first compound 0.4 µM, partner dose 0.0008 µM)",79.6%
22,"CC1(C)CCC(c2ccc(Cl)cc2)=C(CN2CCN(c3ccc(C(=O)NS(=O)(=O)c4ccc(N[C@H](CCN5CCOCC5)CSc5ccccc5)c(S(=O)(=O)C(F)(F)F)c4)cc3)CC2)C1 + O=C1NC(=O)/C(=C/c2ccc(-c3ccc(F)cc3O)o2)S1 [AS252424] (first compound 0.4 µM, partner dose 1 µM)",166%
23,"CC1(C)CCC(c2ccc(Cl)cc2)=C(CN2CCN(c3ccc(C(=O)NS(=O)(=O)c4ccc(N[C@H](CCN5CCOCC5)CSc5ccccc5)c(S(=O)(=O)C(F)(F)F)c4)cc3)CC2)C1 + c1cc(-c2cnn3cc(-c4ccc(OCCN5CCCCC5)cc4)cnc23)ccn1 [Dorsomorphin] (first compound 0.4 µM, partner dose 0.4 µM)",231%
24,"CN(c1ncccc1CNc1nc(Nc2ccc3c(c2)CC(=O)N3)ncc1C(F)(F)F)S(C)(=O)=O + CCN(CC)CCCCNc1ncc2cc(-c3cc(OC)cc(OC)c3)c(NC(=O)NC(C)(C)C)nc2n1 [PD173074] (first compound 0.08 µM, partner dose 0.1 µM)",299%

# In another format: entries from further up.
row | Compound | cleaved PARP positive nuclei fraction
8 | CS(=O)(=O)c1ccc(C(=O)Nc2ccc(Cl)c(-c3ccccn3)c2)c(Cl)c1 [vismodegib] + NC(=O)Nc1cc(-c2cccc(F)c2)sc1C(=O)N[C@H]1CCCNC1 [AZD7762] (first compound 1 µM, partner dose 0.02 µM) | 68%
9 | Cn1cnc2c(F)c(Nc3ccc(Br)cc3Cl)c(C(=O)NOCCO)cc21 [selumetinib] + Cc1cc(N2CCOCC2)cc2[nH]c(-c3c(NC[C@@H](O)c4cccc(Cl)c4)cc[nH]c3=O)nc12 [BMS536924] (first compound 0.015 µM, partner dose 0.2 µM) | 470%
